Patent US7141546B1, “CRFR2 selective ligands” (priority 2001, dated 2006)
Part of at least one peptide drawing is inferred or uncertain, most often the ends. Bridge positions count the residues as written; N and C are the ends. Square brackets hold non-standard residues; d marks the D form. Peptide text beside a SMILES is read from it. αMeL = CC(C)C[C@](C)(N)C(=O)O; Nle = CCCC[C@H](N)C(=O)O

Target: T1, human CRFR2b (Homo sapiens, UniProt Q13324)
T1 construct: expressed in transfected cells
T1 sequence (Q13324 1-438 isoform Q13324-2): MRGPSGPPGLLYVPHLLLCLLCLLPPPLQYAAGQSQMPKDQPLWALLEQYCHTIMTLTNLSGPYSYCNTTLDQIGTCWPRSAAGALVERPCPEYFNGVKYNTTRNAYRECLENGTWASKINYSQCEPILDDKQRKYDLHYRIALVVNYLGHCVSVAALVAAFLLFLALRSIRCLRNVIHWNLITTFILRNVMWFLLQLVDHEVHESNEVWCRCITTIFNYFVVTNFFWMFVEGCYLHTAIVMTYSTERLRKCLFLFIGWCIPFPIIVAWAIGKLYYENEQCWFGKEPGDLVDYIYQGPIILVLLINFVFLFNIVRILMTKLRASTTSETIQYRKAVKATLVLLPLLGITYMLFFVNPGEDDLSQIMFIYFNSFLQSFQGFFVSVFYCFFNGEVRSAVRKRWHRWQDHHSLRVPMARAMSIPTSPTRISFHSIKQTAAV
Experiment: Competitive displacement binding assay, stably transfected CHO cells expressing human CRFR2b
Settings: in words
Description: CRF receptors have now been cloned and are disclosed in the aforementioned Chen et al. article, in Perrin, M., et al., P.N.A.S, 92, 2969–2973 (March 1995), and in Lovenberg, T., et al., P.N.A.S., 92, 836–840 (January 1995). Binding affinity is a term used to refer to the strength of interaction between ligand and receptor. […] Ki (inhibitory binding affinity constant) is determined using a “standard” or “tracer” radioactive ligand and thus measures the displacement of the tracer from the receptor or binding protein; it is most properly expressed with reference to such tracer. However, so long as these assays are carefully performed under specific conditions with relatively low concentrations of receptor or the like, the calculated Ki will be substantially the same as its dissociation constant KD. […] It is particularly efficient to test for Ki because only a single tracer need be labelled, e.g. radioiodinated. […] Those reported hereinafter are derived using radioactively labeled [Tyr Glu^1, Nle^17]-Svg as a radioligand.
Binding assays with cells expressing human CRFR1 are carried out as described in the Chen et al. P.N.A.S., supra. The affinities of test peptides for CRFR1 and CRFR2b stably expressed in CHO cells were determined by competitive displacement of ^125I-(Nle^21, Tyr^32) ovine CRF (for CRFR1) or of [^125I-Tyr^o-]Ucn (for CRFR2b) as described.

SMILES: CCCC[C@H](NC(=O)[C@H](CCC(=O)O)NC(=O)[C@H](CC(C)C)NC(=O)[C@@H](NC(=O)[C@H](CCC(=O)O)NC(=O)[C@H](CCCNC(=N)N)NC(=O)[C@H](CC(C)C)NC(=O)[C@](C)(CC(C)C)NC(=O)[C@H](Cc1c[nH]cn1)NC(=O)[C@H](N)Cc1ccccc1)C(C)C)C(=O)N[C@@H](C)C(=O)N[C@@H](CCCNC(=N)N)C(=O)N[C@@H](C)C(=O)N[C@@H](CCC(=O)O)C(=O)N[C@@H](CCC(N)=O)C(=O)N[C@@H](CC(C)C)C(=O)N[C@@H](C)C(=O)N[C@@H](CCC(N)=O)C(=O)N[C@@H](CCC(N)=O)C(=O)N[C@@H](C)C(=O)N[C@H]1CCC(=O)NCCCC[C@@H](C(=O)N[C@@H](CCCCN)C(=O)N[C@@H](CC(C)C)C(=O)N[C@@H](CCCC)C(=O)N[C@@H](CCC(=O)O)C(=O)N[C@@](C)(CC(C)C)C(=O)N[C@H](C(N)=O)[C@@H](C)CC)NC(=O)[C@H](CC(N)=O)NC(=O)[C@H](CO)NC1=O [Example 9B, (cyclo 32–35) [D-Phe^12, CML^14,40, Nle^21,38, Glu^32, Lys^35]-r/hCRF(12–41)] (H-[dF]H[αMeL]LREVLE[Nle]ARAEQLAQQAESNKKL[Nle]E[αMeL]I-NH2; lactam 21-24)
- binding to human CRFR2b compared with hCRFR1: substantially stronger binding
